The list is a part of this screen's results and no random one: it is rich in T/C values a quarter to a half above the control, in often repeated tests (any T/C) and in doses without a T/C. Other doses and runs of a compound stand elsewhere. T/C is the treated group as % of the vehicle group. Some doses have a count of surviving animals in place of a T/C: the source holds a T/C of zero for them, seemingly a mark for toxic or unscored doses. Some survivor counts are full or nearly so, which does not show that the dose was tolerated: the source hardly ever lists a survival T/C far under the control, and the zero likely stands for such cases as well. Survivors were counted at the toxicity check, usually on the fifth day, unless a day is given; later deaths do not show. Schedule codes are those of the source, read here as Q, the interval in days (D) or hours (H), X, the number of doses. Some entries hold several experiments; their values stand side by side, smallest first. For survival time, the PubChem record calls one and a half times the control and up active, and a quarter to a half above the control has no call in these data; cut-offs in other NCI protocols can differ. Some T/C values are followed by the survivors on the day toxicity was checked, most often the fifth; without a count, all were alive then. Numbered stars: 1 amine (or outer) side, 2 acyl side, 3 side chain; on linkers, the order of the positions; unused ones are H or OH. Square brackets hold non-standard residues; d marks the D form. Peptide text beside a SMILES is read from it. * marks the point of attachment. X6 = CCC(=O)CC1CC(C)CC(C(=O)[*:2])N1[*:1]; X5 = CCCCCCCCC(C)C(=O)*; Aib = CC(C)(N)C(=O)O; X7 = CC(CN(C)CCO)N*
System: BDF1 mice, B16 melanoma ip, median survival T/C
Test: NCI In Vivo Anticancer Drug Screen. Data for tumor model B16 Melanoma (intraperitoneal) in B6D2F1 (BDF1) mice
Conditions: T/C endpoint: median survival time, higher T/C = longer survival
How it was run: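 In this screen, activity was judged from survival or tumor size in treated versus vehicle-treated tumor-bearing mice, reported as T/C.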

[1] = dose: 100.0 mg/kg/injection, schedule: Q01DX009 (ip), vehicle: saline
[2] = dose: 200.0 mg/kg/injection, schedule: Q01DX009 (ip), vehicle: saline
[3] = dose: 400.0 mg/kg/injection, schedule: Q01DX009 (ip), vehicle: saline
[4] = dose: 5.0 mg/kg/injection, schedule: Q01DX009 (ip), vehicle: Klucel (hydroxypropylcellulose) (HPC)
[5] = dose: 12.5 mg/kg/injection, schedule: Q01DX009 (ip), vehicle: Klucel (hydroxypropylcellulose) (HPC)
[6] = dose: 25.0 mg/kg/injection, schedule: Q01DX009 (ip), vehicle: Klucel (hydroxypropylcellulose) (HPC)
[7] = dose: 6.25 mg/kg/injection, schedule: Q01DX009 (ip), vehicle: saline
[8] = dose: 50.0 mg/kg/injection, schedule: Q01DX009 (ip), vehicle: saline
[9] = dose: 200.0 mg/kg/injection, schedule: Q04DX003 (ip), vehicle: saline with Tween-80
[10] = dose: 400.0 mg/kg/injection, schedule: Q04DX003 (ip), vehicle: saline with Tween-80
[11] = dose: 25.0 mg/kg/injection, schedule: Q01DX009 (ip), vehicle: saline
[12] = dose: 100.0 mg/kg/injection, schedule: Q01DX009 (ip), vehicle: Klucel (hydroxypropylcellulose) (HPC)
[13] = dose: 50.0 mg/kg/injection, schedule: Q01DX009 (ip), vehicle: Klucel (hydroxypropylcellulose) (HPC)
[14] = dose: 128.0 mg/kg/injection, schedule: Q01DX009 (ip), vehicle: saline
[15] = dose: 200.0 mg/kg/injection, schedule: Q01DX009 (ip), vehicle: Klucel (hydroxypropylcellulose) (HPC)
[16] = dose: 400.0 mg/kg/injection, schedule: Q01DX009 (ip), vehicle: Klucel (hydroxypropylcellulose) (HPC)

CCC(NC(=O)OC(C)(C)C)C(=O)O (stereo unspecified)
survivor count [1]: 10 of 10 | survivor count [2]: 10 of 10 | survivor count [3]: 9 of 10

C#CCSC(=S)NNc1ccccc1
T/C (dose: 50.0 mg/kg/injection, schedule: Q01DX009 (ip), vehicle: saline with Tween-80): 128 % of control

CN1CCC=C(C(=O)N2c3ccccc3Sc3ccccc32)C1
survivor count [1]: 9 of 10

Cc1c[nH]c(=O)[nH]c1=O
T/C (dose: 128.0 mg/kg/injection, schedule: Q01DX009 (ip), vehicle: saline with Tween-80): 126 % of control [9 of 10 alive] | T/C (dose: 256.0 mg/kg/injection, schedule: Q01DX009 (ip), vehicle: saline with Tween-80): 131 % of control

CCCCCCCCC(C)C(=O)N1CCCC1C(=O)N1C(CC(=O)CC)CC(C)CC1C(=O)NC(C)C(=O)NC(C)(C)C(=O)NC(C)(C)C(=O)NC(C(=O)NC(C)C(=O)NC(C)(C)C(=O)NC(C)(C)C(=O)NC(C)CN(C)CCO)C(C)CC (stereo unspecified) (X5-P[X6]A[Aib][Aib]IA[Aib][Aib]-X7; configuration not given here)
survivor count [4]: 0 of 10

Cc1ccc(S(=O)(=O)NC(CSCc2ccccc2)C(=O)O)cc1 (stereo unspecified)
survivor count (dose: 200.0 mg/kg/injection, schedule: Q01DX009 (ip), vehicle: saline with Tween-80): 10 of 10

CC(C)(SCCc1ccc([N+](=O)[O-])cc1)C(N)C(=O)O (stereo unspecified)
survivor count [5]: 10 of 10 | survivor count [6]: 10 of 10

O=C(OCCOCCN1CCCCC1)N1c2ccccc2Sc2cccnc21
survivor count [7]: 10 of 10 | survivor count [8]: 7 of 10

C=C1CCN(c2ccc(F)cc2)C1=O
T/C (dose: 8.0 mg/kg/injection, schedule: Q01DX009 (ip), vehicle: saline + alcohol): 125 % of control

CCC(c1ccc(OC)cc1)C(CC)c1ccc(O)c(CN2CCN(C)CC2)c1 (stereo unspecified)
survivor count [1]: 10 of 10

COC1=Nc2ccccc2N2CCN=C12
survivor count (dose: 100.0 mg/kg/injection, schedule: Q04DX003 (ip), vehicle: saline with Tween-80): 10 of 10 | survivor count [9]: 0 of 10 | survivor count [10]: 0 of 10

COC1CC(OC2CCC3(C)C(CCC45OC46CCC(C4=CC(=O)OC4)C6(C)CCC35)C2)OC(C)C1O (stereo unspecified)
survivor count [7]: 10 of 10 | survivor count [8]: 10 of 10

CCCC(=O)O
survivor count [2]: 8 of 10 | survivor count [3]: 0 of 10

CCC[CH2][Sn-]([CH2]CCC)([CH2]CCC)[O]c1cc(Cl)c(Cl)cc1Cl
survivor count (dose: 2.5 mg/kg/injection, schedule: Q01DX009 (ip), vehicle: Klucel (hydroxypropylcellulose) (HPC)): 8 of 10 | survivor count [4]: 9 of 10 | survivor count (dose: 10.0 mg/kg/injection, schedule: Q01DX009 (ip), vehicle: Klucel (hydroxypropylcellulose) (HPC)): 6 of 10

CC(C)(N)Cc1ccc(Cl)cc1
survivor count [2]: 0 of 10 | survivor count [3]: 0 of 10

Cc1cccc(C)c1NC(=O)Nc1ccc2c(c1)OCO2
survivor count (dose: 200.0 mg/kg/injection, schedule: Q04DX003 (ip), vehicle: Klucel (hydroxypropylcellulose) (HPC)): 10 of 10 | survivor count (dose: 400.0 mg/kg/injection, schedule: Q04DX003 (ip), vehicle: Klucel (hydroxypropylcellulose) (HPC)): 10 of 10

C[N+](C)(C)c1ncnc2c1ncn2C1CCCO1 (stereo unspecified)
T/C (dose: 12.5 mg/kg/injection, schedule: Q01DX009 (ip), vehicle: saline): 135 % of control | T/C [11]: 132 % of control | T/C [8]: 131 % of control | T/C [1]: 140 % of control | survivor count [2]: 5 of 10 and 10 of 10 | survivor count [3]: 0 of 10

CC(=O)NSCC(NC(=O)OC(C)(C)C)C(=O)O (stereo unspecified)
survivor count [3]: 10 of 10

CCCCn1cnc2c(N)ncnc21
survivor count [6]: 6 of 6 | survivor count [12]: 5 of 6

CC1(C)N=C(N)N=C(N)N1c1cc(Cl)c(Cl)cc1Cl
survivor count [13]: 6 of 10

COc1ccc(C[C@H](N)C(=O)NC2C(CO)OC(n3cnc4c(N(C)C)ncnc43)C2O)cc1 (stereo partly specified)
T/C (dose: 8.0 mg/kg/injection, schedule: Q01DX009 (ip), vehicle: saline): 130 % of control | T/C (dose: 10.0 mg/kg/injection, schedule: Q01DX009 (ip), vehicle: saline): 133 % of control | T/C (dose: 16.0 mg/kg/injection, schedule: Q01DX009 (ip), vehicle: saline): 139 % of control | T/C (dose: 20.0 mg/kg/injection, schedule: Q01DX009 (ip), vehicle: saline): 135 % of control | T/C (dose: 40.0 mg/kg/injection, schedule: Q01DX009 (ip), vehicle: saline): 125 and 137 % of control | T/C (dose: 64.0 mg/kg/injection, schedule: Q01DX009 (ip), vehicle: saline): 132 and 142 % of control | T/C (dose: 80.0 mg/kg/injection, schedule: Q01DX009 (ip), vehicle: saline): 134 % of control | T/C [14]: 142 % of control | survivor count [14]: 5 of 5 | survivor count (dose: 160.0 mg/kg/injection, schedule: Q01DX009 (ip), vehicle: saline): 9 of 10 and 10 of 10 | survivor count (dose: 256.0 mg/kg/injection, schedule: Q01DX009 (ip), vehicle: saline): 1 of 5 | survivor count (dose: 320.0 mg/kg/injection, schedule: Q01DX009 (ip), vehicle: saline): 0 of 10 and 1 of 10

CCCCN(CCCC)C(=O)c1[nH]cnc1/N=N\N(C)C
survivor count [9]: 9 of 10 | survivor count [10]: 0 of 10

COc1ccccc1NC(=O)c1cc2ccccc2cc1O
T/C [2]: 128 % of control

Cc1cc(O)c(C)c(C)c1Cl
survivor count [9]: 10 of 10

CN1CN(C)CN(C)C1
T/C [8]: 125 % of control | survivor count [1]: 10 of 10

O=C1NC(c2ccccc2)C(=O)N1CCN(CCCl)CCCl (stereo unspecified)
survivor count [7]: 9 of 10 | survivor count [11]: 9 of 10

Cn1c(N)c(C(=O)/C=C/c2ccccc2)c(=O)n(C)c1=O
survivor count (dose: 6.25 mg/kg/injection, schedule: Q01DX009 (ip), vehicle: Klucel (hydroxypropylcellulose) (HPC)): 9 of 10 | survivor count [5]: 10 of 10 | survivor count [6]: 10 of 10 | survivor count [12]: 9 of 10 | survivor count [15]: 4 of 10

CCCCCCCCCCCCCCNC(=O)CCl
survivor count [16]: 9 of 10

Cc1ccc([N+](=O)[O-])c2ccccc12
survivor count (dose: 400.0 mg/kg/injection, schedule: Q01DX009 (ip), vehicle: saline with Tween-80): 10 of 10

Cc1cnccc1Br
survivor count (dose: 100.0 mg/kg/injection, schedule: Q01DX009 (ip), vehicle: water): 10 of 10 | survivor count (dose: 200.0 mg/kg/injection, schedule: Q01DX009 (ip), vehicle: water): 10 of 10

CCC(=O)N(C)[C@@H](C)C(=O)O[C@H]1CC(=O)N(C)c2cc(cc(OC)c2Cl)C/C(C)=C/C=C[C@@H](OC)[C@@]2(O)C[C@H](OC(=O)N2)[C@@H](C)[C@@H]2O[C@@]12C
T/C (dose: 1.3 micrograms/kg/injection, schedule: Q01DX009 (ip), vehicle: saline + alcohol): 138 % of control | T/C (dose: 2.5 micrograms/kg/injection, schedule: Q01DX009 (ip), vehicle: saline + alcohol): 141 % of control | survivor count (dose: 30.0 micrograms/kg/injection, schedule: Q01DX009 (ip), vehicle: saline + alcohol): 9 of 10 | survivor count (dose: 60.0 micrograms/kg/injection, schedule: Q01DX009 (ip), vehicle: saline + alcohol): 2 of 10 and 10 of 10

Nc1ccc2cc(S(=O)(=O)O)cc(O)c2c1N=Nc1ccc(F)cc1
survivor count [2]: 6 of 10 | survivor count [3]: 2 of 10

CC1(C)N=C(N)N=C(N)N1c1ccc(OCC(=O)Nc2ccc(S(=O)(=O)F)cc2)c(Cl)c1
T/C (dose: 200.0 mg/kg/injection, schedule: Q04DX003 (ip), vehicle: saline): 137 % of control | survivor count (dose: 400.0 mg/kg/injection, schedule: Q04DX003 (ip), vehicle: saline): 6 of 6

Cc1ccc(CS)cc1
T/C [13]: 125 % of control

CCS(=O)(=O)C(Br)CBr (stereo unspecified)
survivor count [12]: 7 of 10 | survivor count [15]: 0 of 10 | survivor count [16]: 0 of 10

CCCCC(CC)COC(=O)/C=C/C(=O)OCC(CC)CCCC (stereo unspecified)
survivor count [12]: 10 of 10
